According to US20140194361A1, “Vault Agents for Treating Chronic Kidney Disease” (priority 2010, published 2014):

Tested on: MVP
Experiment: MVP expression in kidneys of peptide-treated mice (immunoblotting)
Type: in vivo
Settings: 2400 ug/kg intraperitoneally, three times/week for 4-weeks

Row | Substance | MVP expression in kidneys
1 | GRGDSP [cyclic-GRGDSP] | no significant changes
2 | GRGESP (cyclised or stapled) [cyclic-GRGESP, RGE peptide used as negative control, reference compound] | no significant changes
